Laboratory results: PMC4808006

Assays:
[1] = molecular target: Flag-tagged ΔPDZ2-Syntenin (human); experiment: co-IP; transient transfection of tagged plasmids in H1299 cells; lysates immunoprecipitated with anti-Flag antibodies, Western blotting
[2] = molecular target: Syntenin-ΔPDZ1 (GST fusion protein) (human); experiment: pull-down; purified GST-Syntenin fusion proteins incubated with in vitro translated HA-tagged Slug, pulled down by glutathione beads, immunoblotting; only the target purified

| Binder | binding [1] | binding [2] |
| --- | --- | --- |
| HA-Slug (protein, UniProt O43623 1-268) MPRSFLVKKHFNASKKPNYSELDTHTVIISPYLYESYSMPVIPQPEILSSGAYSPITVWTTAAPFHAQLPNGLSPLSGYSSSLGRVSPPPPSDTSSKDHSGSESPISDEEERLQSKLSDPHAIEAEKFQCNLCNKTYSTFSGLAKHKQLHCDAQSRKSFSCKYCDKEYVSLGALKMHIRTHTLPCVCKICGKAFSRPWLLQGHIRTHTGEKPFSCPHCNRAFADRSNLRAHLQTHSDVKKYQCKNCSKTFSRMSLLHKHEESGCCVAH | binds | – |
| HA-tagged Slug, in vitro translated (protein, UniProt O43623 1-268) MPRSFLVKKHFNASKKPNYSELDTHTVIISPYLYESYSMPVIPQPEILSSGAYSPITVWTTAAPFHAQLPNGLSPLSGYSSSLGRVSPPPPSDTSSKDHSGSESPISDEEERLQSKLSDPHAIEAEKFQCNLCNKTYSTFSGLAKHKQLHCDAQSRKSFSCKYCDKEYVSLGALKMHIRTHTLPCVCKICGKAFSRPWLLQGHIRTHTGEKPFSCPHCNRAFADRSNLRAHLQTHSDVKKYQCKNCSKTFSRMSLLHKHEESGCCVAH | – | no binding |

These are yes or no findings as the source states them, for the method shown. Binding seen in cells or lysates may run through a third protein. For some assays here: Binding can be weak; no strength is given. Sequences can lack the tags named with a protein.
